# Earlier results, collected in patent US20020032316A1, “Hapten-carrier conjugates for use in drug-abuse therapy and methods for preparation of same” (priority 1995, published 2002).
# For at least one compound, name, drawing or mass did not settle the structure.
# System: rats
# Details: single component and single dosing procedures (Kantak et al. 1994); cited from earlier work
smiles,measurement,value
"COC(=O)[C@H]1[C@@H](OC(=O)c2ccccc2)C[C@@H]2CC[C@H]1N2C [cocaine, 3β-(Benzoyloxy)-8-methyl-8-azabicyclo[3.2.1]octane-2β-carboxylic acid methyl ester]",ED50 for cocaine-appropriate responses,2.6 ± 0.29 mg/kg
